# According to patent US11726079B2, “Lighting systems and methods of using lighting systems for in vitro potency assay for Photofrin” (Concordia Laboratories, Inc., priority 2012, dated 2023):
# Test system: A549 human lung carcinoma cells
# Test: In vitro potency assay for Photofrin®: A549 cells, 4 h drug absorption, wash, 10 min irradiation at 400-650 nm, 24 h, XTT viability, 4PL EC50
# Assay type: cell-based
# Description: Cell passaging of A549 cells is performed using fixed seeding densities to reduce assay variation resulting from cell culture conditions. […] Working in very low light conditions, Photofrin® is reconstituted in normal saline to 2.5 mg/mL and diluted further in culture medium at twice the desired final assay concentration, typically 140 μg/mL. A series of two-fold dilutions were then prepared from the 140 μg/mL solution and the diluted drug was added to the cells at 1:1 (v/v) according to the diagram shown in FIG. 11.
# […] The plate is then removed from the incubator, the drug is aspirated, the wells are washed with Dulbecco's phosphate buffered saline (DPBS) and fresh, pre-warmed medium is added to the wells. […] […] The wells covered with foil strips are important controls for the activity of Photofrin® in the absence of irradiation and the effect of light on the cells in the absence of drug.
# The optical absorbance of the wells in column 1 (high drug concentration, no cells) is evaluated for absorption at 450 nm to ensure that the drug is not interfering with the XTT assay. The percent viability of each of the wells in columns 2-9 and 11 is calculated relative to the mean value of column 10 (cell control, no drug, no light). For each dose response obtained, a four parameter logistic (4PL) nonlinear regression analysis is performed of the percent viability versus the log-Photofrin® concentration. The point of inflection of the regression curve (C value) is defined as the EC50 and used in the calculation of relative potency. Curve fitting and calculation of the EC50 is performed with Softmax v5.4.2 (Molecular Devices, Inc.) or Prism v.5.04 (GraphPad, Software Inc.) software. The mean percent viability of columns 9 and 11 is also calculated.
# • 1. Materials and Reagents • 1.1. A549 Human Lung Carcinoma (ATCC—Cat. No.: CCL-185) • 1.2. 25 cm^2 Flasks (Corning—Cat. No.: 431463, or equivalent) • 1.3. 75 cm^2 Flasks (Corning—Cat. No.: 431464, or equivalent) • 1.4. 50 mL tubes (Fisher Scientific—Cat. No. 17-512F, or equivalent) • 1.5. Hemacytometer • 1.6. RPMI-1640 (+) phenol red (Lonza—Cat. No.: 12-167F, or equivalent) • 1.7. HI-FBS (Gibco—Life Technologies—Cat No.: 10082-147, or equivalent) • 1.8. 200 mM L-Glutamine (Lonza—Cat. No.: 17-605E, or equivalent) • 1.9. 0.25% Trypsin-EDTA (Gibco—Cat. No.: 25200-056, or equivalent) • 2. Instruments • 2.1. Forma Scientific centrifuge with swinging bucket rotor (Model 5682, or equivalent) • 2.2. Water bath set at 37° C. • 2.3. […] Prepared Reagents • 3.1. RPMI-1640 Complete Media • 3.1.1. 500 mL bottle of RPMI-1640 basal media containing phenol red • 3.1.2. Add 50 mL HI-FBS • 3.1.3. Add 5.5 mL of 200 mM L-Glutamine • 4. Procedure • 4.1. Remove one vial of A549 lung carcinoma cells from liquid nitrogen storage and after ensuring that the vial is tightly closed, rapidly thaw vial by holding all but the top of the vial submerged in a 37° C. water bath until the vial contents begins to thaw but while ice still remains. • 4.2. Liberally spray the vial with 70% ethanol, wipe with tissue, and place into a laminar flow hood. • 4.3. Transfer the contents of the vial to a 50 mL conical tube containing 9 mL RPMI-1640 complete medium containing phenol red (Step 3.1) (hereafter referred to as complete medium in this method). • 4.4. Centrifuge the tube in a swing bucket rotor set at 1200 RPM (220 RCF) for five minutes at room temperature. • 4.5. Discard supernatant and gently flick the tube to resuspend the cells in the residual volume left in the tube. • 4.6. Add 5 mL complete medium, transfer the cell solution to a 25 cm^2 flask, and then place the flask into a 37° C. incubator with 5% CO2. • 4.7. Monitor the flask daily and when the cells reach approximately 80% confluence, remove the media, and wash the cells by adding 2 mL DPBS to the flask. Ensure that all cells are rinsed and discard the DPBS. • 4.8. Add 1 mL 0.25% trypsin-EDTA to prewash the cells, tip flask to coat all cells, and discard the trypsin. • 4.9. […]
substance,measurement,setting,value
porfimer sodium [Photofrin®],difference between results obtained with XTT and MTT endpoints,"Photofrin® dose response curve, EC50 with XTT versus MTT",approximately 15%
same,increase in the EC50 with black plates relative to clear plates,black plates with black lids versus clear plates,4 fold
same,deviation of Test sample potency from the expected value of 0.5,incubation with Photofrin® for 4.5 hours,≤ 15%
same,deviation of Test sample potency from the expected value of 0.5,"irradiation times 8, 9, 10, 11 and 12 minutes, all conditions",≤ 11%
same,deviation of Test sample potency from the expected value of 0.5,"operators AB and KP, all potency values",≤ 13%
same,deviation of Test sample potency from the expected value,post-irradiation incubation times from 22-26 hours,≤ 15%
